Data from patent publication US12331095B2, “Inducible T cell receptors and uses thereof” (MEDIGENE IMMUNOTHERAPIES GMBH, priority 2018, dated 2025).
Structures can show the parent of a compound that is named as a salt. At least one structure is not confirmed: it was looked up by name or label, or the drawing left a doubt.

System: CD8+ PBL
Experiment: Flow cytometry (CD3, BV6-5) for induction of iTCR-NY-ESO on the surface of CD8+ PBL
Format: cell-based
Details: 20 μM overnight; CD3 and BV6-5 staining
Experimental: FIG. 9: CD8^+ PBL transduced with iTCR-NY-ESO (MHC-I restricted TCR) or CD8^+ PBL expressing wt-NY-ESO were induced overnight with 1, 5, 10 or 20 μM Endoxifen or were left uninduced (no Endoxifen). 24 h after induction T2 cells loaded with relevant peptide SLLMWITQC (SEQ ID NO: 12) or irrelevant peptide VLDGLDVLL (SEQ ID NO: 11) were added to the cultures. IFN-γ secretion was detected by standard IFN-γ ELISA performed with the culture supernatants 24 h after stimulation with T2 targets. Flow cytometry was performed 48 h after induction and cells were assessed for BFP (transductants), CD3 and BV6-5. Exemplary plots shown are iTCR-NY-ESO transduced CD8^+ PBL without induction or with 20 μM Endoxifen. Plots were generated using the analysis tool FlowJo V10. Graph was plotted using graphPad Prism 7.
PBL from a healthy donor was enriched for CD8^+ cells using a commercial cell isolation kit (CD8+untouched) and transduced with the lentiviral vector carrying the iTCR-NY-ESO cassette or with the lentiviral vector carrying wt-NY-ESO as positive control. […] CD8^+ cells carrying either iTCR-NY-ESO were induced overnight with 20 μM Endoxifen or left untreated. Cells were then stained for CD3 (CD3-PECy7, SK7, 557851, BD) and the specific V-beta family BV6-5 (antibody: TRBV6-5-PE, IMMU 222, IM2292, Beckman Coulter).

With `CC/C(=C(\c1ccc(O)cc1)c1ccc(OCCNC)cc1)c1ccccc1` [Endoxifen, (E/Z)-Endoxifen hydrochloride hydrate] the “induction of iTCR-NY-ESO on the surface of CD8+ cells” value was “resulted in induction of iTCR-NY-ESO on the surface of the cells”.
